# Measured values as given in the supplement of paper PMC12067093, “Discovery and optimisation of a covalent ligand for TRIM25 and its application to targeted protein ubiquitination” (Chemical Science, 2025).
# Sequences of proteins named here, by UniProt entry; tags and fusion partners are left off. A change or cut given only in a name is not applied to a line headed by its entry.
# UniProt Q7Z7L1: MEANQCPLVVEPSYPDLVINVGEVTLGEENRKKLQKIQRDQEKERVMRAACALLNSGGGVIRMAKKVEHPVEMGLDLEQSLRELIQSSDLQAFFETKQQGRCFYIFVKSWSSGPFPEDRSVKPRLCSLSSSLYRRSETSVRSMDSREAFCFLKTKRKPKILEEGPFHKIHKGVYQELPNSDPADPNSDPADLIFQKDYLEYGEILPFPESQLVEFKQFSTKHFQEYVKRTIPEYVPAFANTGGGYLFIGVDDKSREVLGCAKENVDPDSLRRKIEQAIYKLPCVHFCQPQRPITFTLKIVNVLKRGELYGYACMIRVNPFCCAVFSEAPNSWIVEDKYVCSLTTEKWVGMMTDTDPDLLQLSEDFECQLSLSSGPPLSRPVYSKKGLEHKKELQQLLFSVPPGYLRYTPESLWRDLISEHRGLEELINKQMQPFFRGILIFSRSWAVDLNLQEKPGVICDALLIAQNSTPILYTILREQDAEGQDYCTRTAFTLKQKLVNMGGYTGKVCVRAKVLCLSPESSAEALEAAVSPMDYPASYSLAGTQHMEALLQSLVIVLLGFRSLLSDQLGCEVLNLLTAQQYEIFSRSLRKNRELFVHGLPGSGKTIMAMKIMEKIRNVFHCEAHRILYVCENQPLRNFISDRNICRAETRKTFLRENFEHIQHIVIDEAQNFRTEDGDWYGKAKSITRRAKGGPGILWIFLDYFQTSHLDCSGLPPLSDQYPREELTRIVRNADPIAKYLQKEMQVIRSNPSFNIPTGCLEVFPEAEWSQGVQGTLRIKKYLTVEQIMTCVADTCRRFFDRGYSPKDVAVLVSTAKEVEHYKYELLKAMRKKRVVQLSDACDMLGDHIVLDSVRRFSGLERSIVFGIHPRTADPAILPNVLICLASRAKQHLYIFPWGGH
# The other results are listed elsewhere or left out.
# Tests used:
# Test in all cases: probe-labelled cysteine peptide fold change vs DMSO (competition) (log2 fold change); higher = less target engagement (more negative = stronger competition)
# Details in all cases: THP-1, incubation time: 4 h
# [1] = target: SLFN11_Q7Z7L1_842_VVQLSDACDMLGDHIVLDSVR (UniProt Q7Z7L1)
# [2] = target: SLFN11_Q7Z7L1_842_VVQLSDACDMLGDHIVLDSVRR (UniProt Q7Z7L1)
# [3] = target: SLTM_Q9NWH9_107_DCELENQEAHEQDGNDELK (UniProt Q9NWH9)
# [4] = target: SLTM_Q9NWH9_107_DCELENQEAHEQDGNDELKDSEEFGENEEENVHSK (UniProt Q9NWH9)
# [5] = target: SLTM_Q9NWH9_107_KHEADELSGDASVEDDAFIKDCELENQEAHEQDGNDELK (UniProt Q9NWH9)
# SLTM_Q9NWH9_441_CIAHLHR = SLTM_Q9NWH9_441_CIAHLHR (UniProt Q9NWH9)
# 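Note: competitive profiling in live THP-1 cells: cysteine peptides tagged with an iodoacetamide desthiobiotin (IA-DTB) probe, intensity after compound treatment relative to DMSO-treated cells.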
structure (smiles),measurement,setting,value
Cc1cc(C(=O)N2CCCN(C(=O)CCl)CC2)ccc1-c1ccccc1 [compound 10],probe-labelled cysteine peptide fold change,[1]; 10 µM,0.117
same,probe-labelled cysteine peptide fold change,[1]; 50 µM,-0.231
same,probe-labelled cysteine peptide fold change,[2]; 10 µM,0.0644
same,probe-labelled cysteine peptide fold change,[2]; 50 µM,-0.107
same,probe-labelled cysteine peptide fold change,[3]; 10 µM,0.0243
same,probe-labelled cysteine peptide fold change,[3]; 50 µM,0.146
same,probe-labelled cysteine peptide fold change,[4]; 10 µM,0.0565
same,probe-labelled cysteine peptide fold change,[4]; 50 µM,-0.603
same,probe-labelled cysteine peptide fold change,[5]; 10 µM,0.0217
same,probe-labelled cysteine peptide fold change,[5]; 50 µM,-1.37
same,probe-labelled cysteine peptide fold change,SLTM_Q9NWH9_441_CIAHLHR; 10 µM,0.0864
same,probe-labelled cysteine peptide fold change,SLTM_Q9NWH9_441_CIAHLHR; 50 µM,0.245
